For this assay, the target named is MED14 (mouse (Mus musculus; endogenous in CH12)) (UniProt A2ABV5). Briefly: cryo-EM structure; endogenous mouse Mediator immunopurified from CH12 nuclear extract through 3×FLAG-MED19 or 3×FLAG-MED25; eluted in 50 mM HEPES pH 7.9, 100 mM KCl, 5% glycerol, 1 mM EDTA, 0.005% NP-40; map at 4.0 Å overall, focused refinement of the MED1 and knob/hook ends (6-10 Å); both purified.

Sequences of proteins named here, by UniProt entry; tags and fusion partners are left off.
UniProt A2ABV5: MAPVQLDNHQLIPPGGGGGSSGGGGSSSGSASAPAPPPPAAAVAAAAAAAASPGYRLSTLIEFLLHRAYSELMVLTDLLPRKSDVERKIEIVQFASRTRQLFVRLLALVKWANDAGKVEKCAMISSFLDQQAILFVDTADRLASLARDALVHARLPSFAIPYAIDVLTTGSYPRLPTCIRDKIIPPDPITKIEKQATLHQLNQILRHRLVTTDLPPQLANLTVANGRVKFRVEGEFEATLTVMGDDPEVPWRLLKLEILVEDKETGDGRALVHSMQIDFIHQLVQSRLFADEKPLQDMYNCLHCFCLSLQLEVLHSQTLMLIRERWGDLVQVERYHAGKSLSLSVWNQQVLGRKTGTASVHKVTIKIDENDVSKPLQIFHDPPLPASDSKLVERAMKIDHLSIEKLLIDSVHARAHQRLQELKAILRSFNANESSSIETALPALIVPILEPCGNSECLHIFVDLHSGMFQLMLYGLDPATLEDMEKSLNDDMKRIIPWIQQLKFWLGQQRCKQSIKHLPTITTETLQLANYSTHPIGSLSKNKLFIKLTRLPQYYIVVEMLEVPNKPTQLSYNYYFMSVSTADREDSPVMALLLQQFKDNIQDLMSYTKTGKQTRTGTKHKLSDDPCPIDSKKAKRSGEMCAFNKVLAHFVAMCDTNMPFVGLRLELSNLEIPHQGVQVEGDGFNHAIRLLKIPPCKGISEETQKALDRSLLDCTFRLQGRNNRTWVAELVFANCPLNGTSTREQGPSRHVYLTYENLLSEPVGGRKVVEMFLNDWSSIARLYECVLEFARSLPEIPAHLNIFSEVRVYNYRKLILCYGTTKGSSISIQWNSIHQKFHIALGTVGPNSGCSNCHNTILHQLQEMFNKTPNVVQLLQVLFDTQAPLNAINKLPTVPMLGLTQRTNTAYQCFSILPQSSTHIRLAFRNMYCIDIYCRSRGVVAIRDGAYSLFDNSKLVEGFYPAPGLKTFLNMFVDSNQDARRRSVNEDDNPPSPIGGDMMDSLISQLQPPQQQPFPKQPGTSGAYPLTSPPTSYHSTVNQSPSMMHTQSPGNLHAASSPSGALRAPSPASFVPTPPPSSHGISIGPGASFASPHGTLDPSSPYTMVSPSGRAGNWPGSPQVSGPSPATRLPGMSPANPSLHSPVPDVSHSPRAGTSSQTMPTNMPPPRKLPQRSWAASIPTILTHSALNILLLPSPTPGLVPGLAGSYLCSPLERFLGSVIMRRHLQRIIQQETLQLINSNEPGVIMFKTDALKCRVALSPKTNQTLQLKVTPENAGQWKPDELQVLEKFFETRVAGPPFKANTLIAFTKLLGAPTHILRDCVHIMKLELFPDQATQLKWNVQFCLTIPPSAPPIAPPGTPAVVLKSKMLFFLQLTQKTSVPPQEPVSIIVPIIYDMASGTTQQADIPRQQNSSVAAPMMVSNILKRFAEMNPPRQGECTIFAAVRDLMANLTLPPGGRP

These are yes or no findings as the source states them, for the method shown. Some results given as binding are weak or reduced against the parent protein; the word gives no strength.

B1: MED27 (natural protein, mouse (Mus musculus; endogenous in CH12), UniProt Q9DB40 1-311, looked up)
chain: MADVLSVGVNLEAFSQAISAIQALRSSVSRVFDCLKDGMRNKETLEGREKAFIANFQDNLHSVNRDLNELERLSNLVGKPSENHPLHNSGLLSLDPVQDKTPLYSQLLQAYKWSNKLQYHAGLASGLLNQQSLKRSANQMGVSAKRRPKAQPTTLVLPPQYVDDVISRIDRMFPEMSIHLSRPNGTSAMLLVTLGKVLKVIVVMRSLFIDRTIVKGYNESVYTEDGKLDIWSKSSYQVFQKVTDHATTALLHYQLPQMPDVVVRSFMTWLRSYIKLFQAPCQRCGKFLQDGLPPTWRDFRTLEAFHDTCRQ
notes: MED27, Mus musculus, endogenous upper Tail subunit of Mediator; source: endogenous, CH12 mouse B lymphoma nuclear extract; immunopurified as part of Mediator (FLAG M2 agarose, FLAG peptide elution)
As to B1, the binding result was “binds”.

B2: MED17 (natural protein, mouse (Mus musculus; endogenous in CH12), UniProt Q8VCD5 1-649, looked up)
chain: MSGVRAVRISIESACEKQVQEVGLDGTETYLQPLSMSQNLARLAQRIDFSQGSGSEEEEAAGPDGDAPDWGGAGADQDDEEGLVKFQPSLWPWDSVRNNLRSALTEMCVLYDVLSIVRDKKFMTLDPVSQDALPPKQSPQTLQLISKKKSLAGAAQILLKGAERLTKSVAENQENKLQRDFNSELLRLRQHWKLRKVGDKILGDLSYRSAGSLFPHHGTFEVIKNTDIDLDKKIPEDYCPLDVQIPSDLEGSAYIKVSIQKQAPDIGDLGTVNLFKRPLPKSKPGSPHWQTKLEAAQNVLLCKEIFAQLSREAVQIKSQIPHIVVKNQIISQPFPSLQLSISLCHSSDDKKSQKCAAEKPGQEDHLYVLEHNLHLLIREFHKQTLSSIVMPHPASAPFGHKRMRLSGPQAFDKNEINSIQSTEGLLEKIIKQAKHIFLRSRTAATIDSLASRIEDPQIQAHWSNINDVYESSVKVLITSQGYEQICKSIQLQLNIGVEQVRVVHRDGRVIMLSHQEQELQDFLLSQMSQHQVHAVQQLAKVMGWQVLSFSNHVGLGPIESIGNASAITVASPSGDYAISVRNGPESGSKIMVQFPRNQCKDLPKSDVLQDSKWSHLRGPFKEVQWNKMEGRNFVYKMELLMSALSPCLL
notes: MED17, Mus musculus, endogenous Head module scaffold subunit of Mediator; source: endogenous, CH12 mouse B lymphoma nuclear extract; immunopurified as part of Mediator (FLAG M2 agarose, FLAG peptide elution)
In the case of B2, the binding entry is on record as “binds”.

B3: MED29 (natural protein, mouse (Mus musculus; endogenous in CH12), UniProt Q9DB91 1-199, looked up)
chain: MAAPQPQAAAVSSASGVSGPGSAGGPGPQQQPQPTQLVGSAQSGLLQQQQQDFDPVQRYKMLIPQLKESLQTLMKVAAQNLIQNTNIDNGQKSSDAPLQRFDKCLEEFYALCDQLELCLRLAHECLSQSCDSAKHSPTLVPTATKPDAVQPDSLPYPQYLAVIKAQITCAKDIHTALLDCANKVTGKTTAPSTGPGGSL
notes: MED29, Mus musculus, endogenous upper Tail subunit of Mediator; source: endogenous, CH12 mouse B lymphoma nuclear extract; immunopurified as part of Mediator (FLAG M2 agarose, FLAG peptide elution)
B3: the binding result is on record as “binds”.

The values are drawn from PMC7921410, “Structure of mammalian Mediator complex reveals Tail module architecture and interaction with a conserved core” (Nature Communications, 2021).
